# PubChem BioAssay AID1347423 (Functional Genomics Laboratory (NCATS/FGL), 2020)
# In all, about 52,000 sequences went through this assay and about 210 (0.4%) were called active.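 How the source made its calls: active means gene whose silencing raises cell survival under the drug, median off-target-corrected z-score across its silencing RNAs 2 or more; inactive means the rest.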 The list shows a part of the results.
# Test: Resistance to Poly (ADP-Ribose) Polymerase inhibitor: Gene Identification via Genome-wide siRNA Screen
# Settings: mouse BRCA2 R2336H ES cells, olaparib, CellTiter-Glo viability; hits give high values
# Method in brief: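 Mouse BRCA2 R2336H ES cells were reverse-transfected with siRNA (20 nM final), treated at 48 h with 500 nM olaparib, and read by CellTiter-Glo after 72 h. Scores: MAD-based z per siRNA, median per gene, seed off-target correction.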
row,Sequence,z-score
1,GCAAGCCACAACAGUUAAATT against Rpl9,inactive: -3.29
2,GGUGAUGUGUAGUGAAUGGTT against Il13,inactive: -0.782
3,GGCCUUUAUCCUGAGGCUATT against 2310061F22Rik,inactive: -0.593
4,CCGAAUUGGACUCCACCAATT against Gdf6,inactive: -1.61
5,GGAAUGGAAUACAAAGUCATT against C80587,inactive: 0.0646
6,CCGUCUGAUGAAAACACUATT against Ssfa2,inactive: -0.253
7,GGACAUCGCAUAUCAGCUATT against Akp2,inactive: -0.44
8,CCACCCAUAUUAUAAUUGUTT against Olfr722,inactive: 0.137
9,GGAUGAUGGCUGUAUUUUGTT against Hoxb5,inactive: 0.139
10,GCUAUUUCUCACAGAAUUATT against Dmd,inactive: 0.758
11,GGAGUCGGUUAGAAGCUCUTT against Trim15,inactive: -0.354
12,CCUCCGUUUGAUGACUCAATT against Tcte3,inactive: 0.671
13,GGUUUUAAUUUCAACUGUCTT against Cln2,inactive: 0.646
14,GGGCUAAUUGUGAACAUUUTT against Slc7a1,inactive: -3.02
15,GGCCAUCUCUUCUACUGUATT against 4732486J07Rik,inactive: -1.36
16,CGCAAUUUGAAUAUGCCUGTT against Ttc11,inactive: 0.695
17,GGAGACUGUAUGUGGCAAGTT against Camp,inactive: -0.82
18,GGAAGAAUGGAGCUGUACATT against Pep4,inactive: -0.122
19,GCCUUGUUUAUAUGCCCAATT against Olfr592,inactive: -0.955
20,GCAGUUUCUAAUGAAGGUUTT against Ppp2r5a,inactive: -0.681
21,GGUAAACAGAAUCUGGUGATT against Dhfr,inactive: 1.86
22,GGAUCUUUCGUGUGGAAAATT against Atf7ip,inactive: 1.14
23,GCAGAUCAGUUGGUACAAGTT against 8430416H19Rik,inactive: 1.06

row,Sequence,z-score
1,GGUUCAAGUGGUAAGCAAUTT against 1700016D06Rik,inactive: -0.303
2,GGCAAUGUCAGAGCUAAUCTT against BC067068,inactive: -0.0128
3,GCAUGACAUAUAGUACAAUTT against LOC433365,inactive: 0.603
4,CAGUAUGGCCCUGUCCUACTT against Hand2,inactive: 1.91
5,CCGUCAAACUACAGUUUGATT against BC054438,inactive: -0.863
6,GGUGAUUUGCUCAAUCCAATT against Phox2a,inactive: 1.66
7,GGAUAAUGAUGUGAAAGGCTT against Mrps30,inactive: 0.361
8,ACAUGACAAACAACACUAUTT against Olfr960,inactive: -0.0859
9,GGUUGUGGAAAAUGUUAGGTT against Olfr1054,inactive: 1.06
10,GAUGGACAAACGGAAGUGCTT against Iapp,inactive: -0.245
11,GGGAACCAUCAAUAGGCACTT against 9130022K13Rik,inactive: -0.201
12,GCGCAAUACGUGGGUUUGUTT against A930021C24Rik,inactive: -1.88
13,GGACCUUGCAUUUGCUUACTT against Fez2,inactive: -0.463
14,GGCUCUUACUUCAUCACUATT against Casp4,inactive: -1.01
15,GGUCAGUAUCAGAAUGAUCTT against D930025H04,inactive: 0.891
16,GGCCGAAACUUCGUUUAUATT against Crsp6,inactive: -1.83
17,CCAAAACGGAAUCCUAAUATT against 9430031J16Rik,inactive: -0.0181
18,GCGGGCUUGGAAGAAUCAUTT against Gle1l,inactive: -1.74
19,GGGAAAGUUAAUAUCAAGATT against Ephb4,inactive: 1.35
20,GGGUUAAGCGCAAGUGUAATT against 2210008A03Rik,inactive: -1.83
21,GCACCAGUUCUACUUCACCTT against Fpr-rs2,inactive: 1.72
22,GGUAAAAUCACUUCAGAUCTT against Phb,inactive: 0.69
23,GGAAAUGGUAAUUUUCAGUTT against C330005L02Rik,inactive: 0.202

# Some of the entries above, reformatted:
row	Sequence	z-score
9	GGUUGUGGAAAAUGUUAGGTT against Olfr1054	inactive: 1.06
10	GAUGGACAAACGGAAGUGCTT against Iapp	inactive: -0.245
11	GGGAACCAUCAAUAGGCACTT against 9130022K13Rik	inactive: -0.201

# Going on with the list.

row,Sequence,z-score
1,GGUCCUUGUCUCUCAUGUATT against Snap29,inactive: -0.495
2,CGUAUGAAGGAAUUCCAUGTT against 1700011F03Rik,inactive: -0.186
3,GGCUCCGAAUAGGAGAUCATT against Crk,inactive: 0.196
4,GGAUCCACAAGGAAUUUAUTT against 9530003J23Rik,inactive: 0.576
5,CCCAGGGUGUCAAUCUAAATT against 1110014P06Rik,inactive: -0.481
6,GGAAAAUGACUUCAGCUGGTT against Sfmbt2,inactive: 0.293
7,GGAAUUUACUUACAUCAUGTT against Rbp3,inactive: 0.584
8,GGAGUUAUACGCAUGCCAGTT against ORF18,inactive: 1.95
9,GGCUAAGCAAGGCUAUGUCTT against Rpl15,inactive: -2.97
10,GGAGGAAGAGAAGUACAUUTT against Khdrbs3,inactive: 2.5
11,GGUCAGAGAACUCUCUACATT against Zfp68,inactive: -1.04
12,GCUCUAUGUACGCGUUAGATT against Col18a1,inactive: 0.705
13,CCUGCCAACUACGAAUGAATT against Stx8,inactive: 1.19
14,GCGCAGAGAGAAAUAUCCCTT against Map4k1,inactive: 1.25
15,CCGAGUGUAAACUUCAAAUTT against B130052G07Rik,inactive: 0.11
16,GCCUAGUUCUUUAUGCUAUTT against Golga4,inactive: 1.97
17,GGGCAGUAAGGACAGUUUUTT against Oaz1,inactive: -1.02
18,AGUCUUCACGUUUCAUUUATT against Olfr1195,inactive: 0.623
19,CGACAUGACCAAGAACGAUTT against Zyx,inactive: -1.65
20,GCUCAUGACACUCUUCCUGTT against Spib,inactive: -0.26
21,GCCUGACUAGAAAUAAAAATT against Pde4c,inactive: -0.715
